# Test results as given in paper PMC4421817.
# By UniProt entry, the sequences of proteins in these tests, tags left out. Where a name states a change or a piece, a line headed by the entry shows the natural chain unless it says otherwise.
# UniProt P31153: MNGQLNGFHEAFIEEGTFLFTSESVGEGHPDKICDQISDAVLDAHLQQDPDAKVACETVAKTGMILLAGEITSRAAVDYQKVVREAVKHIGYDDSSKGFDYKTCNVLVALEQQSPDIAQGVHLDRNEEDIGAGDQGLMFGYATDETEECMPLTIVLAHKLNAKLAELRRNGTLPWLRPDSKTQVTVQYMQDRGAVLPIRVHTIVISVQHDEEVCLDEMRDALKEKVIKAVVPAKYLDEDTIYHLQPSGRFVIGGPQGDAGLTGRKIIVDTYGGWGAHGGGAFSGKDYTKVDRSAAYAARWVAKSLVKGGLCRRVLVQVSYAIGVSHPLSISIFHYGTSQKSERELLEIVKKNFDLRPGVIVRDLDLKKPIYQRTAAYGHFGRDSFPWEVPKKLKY
# UniProt O15379: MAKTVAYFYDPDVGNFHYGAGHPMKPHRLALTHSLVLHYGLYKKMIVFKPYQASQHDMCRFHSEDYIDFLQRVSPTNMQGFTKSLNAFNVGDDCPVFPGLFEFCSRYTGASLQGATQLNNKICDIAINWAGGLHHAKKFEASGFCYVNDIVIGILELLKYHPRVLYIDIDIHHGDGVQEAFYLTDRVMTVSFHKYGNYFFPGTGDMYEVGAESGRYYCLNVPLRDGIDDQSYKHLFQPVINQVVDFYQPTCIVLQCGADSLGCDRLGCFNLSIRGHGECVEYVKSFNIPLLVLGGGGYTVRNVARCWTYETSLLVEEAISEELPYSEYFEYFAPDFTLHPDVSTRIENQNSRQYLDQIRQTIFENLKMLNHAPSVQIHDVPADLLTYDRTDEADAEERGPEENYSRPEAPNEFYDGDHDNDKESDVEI
# UniProt Q09472: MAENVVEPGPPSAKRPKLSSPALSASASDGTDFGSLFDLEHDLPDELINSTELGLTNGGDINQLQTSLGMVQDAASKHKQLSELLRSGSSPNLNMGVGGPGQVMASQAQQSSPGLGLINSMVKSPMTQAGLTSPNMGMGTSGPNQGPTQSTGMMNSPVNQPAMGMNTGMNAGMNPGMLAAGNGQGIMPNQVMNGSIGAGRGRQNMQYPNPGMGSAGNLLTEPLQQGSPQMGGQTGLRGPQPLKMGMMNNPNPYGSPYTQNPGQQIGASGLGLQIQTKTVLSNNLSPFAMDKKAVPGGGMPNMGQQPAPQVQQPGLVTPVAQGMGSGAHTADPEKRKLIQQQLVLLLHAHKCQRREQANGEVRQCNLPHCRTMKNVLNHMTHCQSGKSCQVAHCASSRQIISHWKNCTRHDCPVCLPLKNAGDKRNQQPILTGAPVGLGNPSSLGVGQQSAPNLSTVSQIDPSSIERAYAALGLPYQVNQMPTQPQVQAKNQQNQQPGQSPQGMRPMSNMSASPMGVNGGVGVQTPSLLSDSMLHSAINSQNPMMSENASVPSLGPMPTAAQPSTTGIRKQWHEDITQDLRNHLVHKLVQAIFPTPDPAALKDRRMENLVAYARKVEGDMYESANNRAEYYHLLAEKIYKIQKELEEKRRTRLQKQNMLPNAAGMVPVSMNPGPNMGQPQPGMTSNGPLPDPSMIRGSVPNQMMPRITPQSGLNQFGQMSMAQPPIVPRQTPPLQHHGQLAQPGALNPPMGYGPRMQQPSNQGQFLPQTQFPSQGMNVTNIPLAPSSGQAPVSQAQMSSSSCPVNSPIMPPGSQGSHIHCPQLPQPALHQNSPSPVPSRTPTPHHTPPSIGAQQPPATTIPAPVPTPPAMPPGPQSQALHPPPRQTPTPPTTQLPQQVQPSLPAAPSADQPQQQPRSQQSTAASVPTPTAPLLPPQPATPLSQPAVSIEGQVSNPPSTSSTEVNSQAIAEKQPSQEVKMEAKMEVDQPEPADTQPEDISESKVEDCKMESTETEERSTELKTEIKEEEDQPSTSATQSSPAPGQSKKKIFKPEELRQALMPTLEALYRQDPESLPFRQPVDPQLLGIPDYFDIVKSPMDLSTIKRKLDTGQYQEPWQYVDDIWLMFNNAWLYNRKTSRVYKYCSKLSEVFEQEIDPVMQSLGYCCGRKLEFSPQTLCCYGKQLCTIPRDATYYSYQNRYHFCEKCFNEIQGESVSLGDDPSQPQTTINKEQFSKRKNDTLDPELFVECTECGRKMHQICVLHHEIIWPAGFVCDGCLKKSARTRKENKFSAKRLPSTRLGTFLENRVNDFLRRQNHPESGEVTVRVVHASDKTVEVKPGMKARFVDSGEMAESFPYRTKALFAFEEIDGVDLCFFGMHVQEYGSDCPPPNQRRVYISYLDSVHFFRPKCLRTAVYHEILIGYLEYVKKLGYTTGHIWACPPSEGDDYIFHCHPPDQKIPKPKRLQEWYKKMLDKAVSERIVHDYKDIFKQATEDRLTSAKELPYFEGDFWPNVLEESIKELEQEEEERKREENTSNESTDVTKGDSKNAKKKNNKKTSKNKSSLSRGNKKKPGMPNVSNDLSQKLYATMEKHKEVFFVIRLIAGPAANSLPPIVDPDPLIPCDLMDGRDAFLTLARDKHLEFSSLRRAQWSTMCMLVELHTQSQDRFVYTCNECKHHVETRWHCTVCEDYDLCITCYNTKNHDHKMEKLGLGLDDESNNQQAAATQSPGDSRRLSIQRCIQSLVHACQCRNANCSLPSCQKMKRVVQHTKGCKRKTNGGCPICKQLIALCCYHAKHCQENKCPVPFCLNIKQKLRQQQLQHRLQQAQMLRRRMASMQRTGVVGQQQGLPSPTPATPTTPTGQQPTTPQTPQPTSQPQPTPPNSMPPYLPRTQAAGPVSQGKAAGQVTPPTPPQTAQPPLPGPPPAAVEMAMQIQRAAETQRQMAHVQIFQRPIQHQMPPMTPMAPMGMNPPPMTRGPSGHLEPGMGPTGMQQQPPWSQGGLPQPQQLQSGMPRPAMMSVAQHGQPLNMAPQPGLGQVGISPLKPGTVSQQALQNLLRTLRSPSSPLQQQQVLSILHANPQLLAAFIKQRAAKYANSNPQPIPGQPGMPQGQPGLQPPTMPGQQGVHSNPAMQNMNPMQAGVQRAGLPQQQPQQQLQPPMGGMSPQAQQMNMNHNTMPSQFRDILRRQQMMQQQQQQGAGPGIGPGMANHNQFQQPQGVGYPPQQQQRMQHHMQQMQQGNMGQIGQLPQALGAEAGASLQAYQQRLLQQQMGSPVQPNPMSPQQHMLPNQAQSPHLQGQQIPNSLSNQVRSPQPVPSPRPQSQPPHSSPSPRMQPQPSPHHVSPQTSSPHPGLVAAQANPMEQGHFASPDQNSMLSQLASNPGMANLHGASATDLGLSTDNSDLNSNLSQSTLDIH
# No constants are given. Whether binding was seen depends on the method and setting. In cells and extracts the contact can be indirect. Some entries that bind do so weakly or less than the wild type.
# Columns and labels:
# [1] = target: endogenous MAT IIα (human (endogenous in HEK293T)) (UniProt P31153); assay: co-IP; endogenous proteins; HEK293T cultured with or without folate for 48 h and treated with MG132 for 6 h before harvest; western blotting
# GST-MAT IIα (human) = GST-MAT IIα (human) (UniProt P31153); assay: pull-down; GST-MAT IIα on GST antibody-conjugated beads, mixed with HEK293T cell lysate (0.3% Nonidet P40 buffer) at 4 °C overnight; non-induced E. coli as negative control; western blotting; only the target purified
# flag-MAT IIα (human) = flag-MAT IIα (human) (UniProt P31153); assay: co-IP; HEK293T transfected with flag-MAT IIα, normal or folate-deprived culture; lysis in 0.3% Nonidet P40 buffer (150 mM NaCl, 50 mM Tris-HCl, pH 7.5); anti-flag M2 agarose 3 h at 4 °C; endogenous P300 detected by western blotting
Substance,binding [1],binding (GST-MAT IIα (human)),binding (flag-MAT IIα (human))
HDAC3 (histone deacetylase-3) (from UniProt O15379 1-428) (enzyme),binds,binds,
P300 (E1A binding protein) (from UniProt Q09472 1-2414) (enzyme),,binds,binds
